According to article doi:10.1101/2025.01.10.632296:
No constants are given. Whether binding was seen depends on the method and setting. Binding seen in cells or lysates may run through a third protein. Some entries that bind do so weakly or less than the wild type. Where a sequence is shown, tags or fusion partners need not be part of it.

T1: HA-tagged full-length human CEP162 (human) (UniProt Q5TB80)
T1 sequence: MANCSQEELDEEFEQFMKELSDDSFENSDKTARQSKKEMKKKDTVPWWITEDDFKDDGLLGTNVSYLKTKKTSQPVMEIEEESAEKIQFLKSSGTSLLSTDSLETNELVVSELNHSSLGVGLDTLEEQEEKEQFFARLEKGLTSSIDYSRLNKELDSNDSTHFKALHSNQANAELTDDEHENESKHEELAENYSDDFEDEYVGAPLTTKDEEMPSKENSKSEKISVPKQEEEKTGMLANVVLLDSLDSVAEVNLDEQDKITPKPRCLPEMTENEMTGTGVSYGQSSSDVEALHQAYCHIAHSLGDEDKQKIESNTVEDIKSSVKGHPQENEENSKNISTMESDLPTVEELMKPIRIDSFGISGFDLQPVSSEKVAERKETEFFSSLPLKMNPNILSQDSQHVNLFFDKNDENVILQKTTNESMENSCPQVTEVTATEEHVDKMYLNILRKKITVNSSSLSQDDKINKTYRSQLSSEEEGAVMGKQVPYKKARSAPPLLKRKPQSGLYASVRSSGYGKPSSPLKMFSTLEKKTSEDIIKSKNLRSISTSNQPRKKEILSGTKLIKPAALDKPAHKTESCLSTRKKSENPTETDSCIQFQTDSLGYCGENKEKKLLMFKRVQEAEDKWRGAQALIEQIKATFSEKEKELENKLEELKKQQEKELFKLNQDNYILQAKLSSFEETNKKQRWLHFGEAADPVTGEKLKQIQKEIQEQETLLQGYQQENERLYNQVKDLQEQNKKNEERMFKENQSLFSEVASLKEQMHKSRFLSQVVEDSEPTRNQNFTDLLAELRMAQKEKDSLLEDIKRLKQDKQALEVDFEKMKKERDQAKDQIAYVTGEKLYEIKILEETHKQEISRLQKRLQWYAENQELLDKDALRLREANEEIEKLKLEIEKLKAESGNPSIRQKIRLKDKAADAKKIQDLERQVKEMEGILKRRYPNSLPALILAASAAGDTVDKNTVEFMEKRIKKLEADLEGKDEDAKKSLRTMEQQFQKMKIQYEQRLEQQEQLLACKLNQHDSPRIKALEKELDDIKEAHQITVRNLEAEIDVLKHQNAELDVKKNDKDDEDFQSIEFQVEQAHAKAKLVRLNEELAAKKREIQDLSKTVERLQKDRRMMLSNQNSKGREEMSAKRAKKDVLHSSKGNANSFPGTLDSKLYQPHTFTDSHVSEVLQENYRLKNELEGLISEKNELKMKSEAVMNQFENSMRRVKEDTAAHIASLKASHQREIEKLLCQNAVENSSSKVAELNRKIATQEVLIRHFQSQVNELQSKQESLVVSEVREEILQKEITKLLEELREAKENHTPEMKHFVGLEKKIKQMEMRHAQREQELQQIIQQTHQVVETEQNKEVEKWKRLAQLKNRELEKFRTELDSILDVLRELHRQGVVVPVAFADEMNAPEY

T2: Endogenous KIF27-GFP (mouse Kif27^GFP knock-in allele) (mouse) (UniProt Q7M6Z4)
T2 sequence: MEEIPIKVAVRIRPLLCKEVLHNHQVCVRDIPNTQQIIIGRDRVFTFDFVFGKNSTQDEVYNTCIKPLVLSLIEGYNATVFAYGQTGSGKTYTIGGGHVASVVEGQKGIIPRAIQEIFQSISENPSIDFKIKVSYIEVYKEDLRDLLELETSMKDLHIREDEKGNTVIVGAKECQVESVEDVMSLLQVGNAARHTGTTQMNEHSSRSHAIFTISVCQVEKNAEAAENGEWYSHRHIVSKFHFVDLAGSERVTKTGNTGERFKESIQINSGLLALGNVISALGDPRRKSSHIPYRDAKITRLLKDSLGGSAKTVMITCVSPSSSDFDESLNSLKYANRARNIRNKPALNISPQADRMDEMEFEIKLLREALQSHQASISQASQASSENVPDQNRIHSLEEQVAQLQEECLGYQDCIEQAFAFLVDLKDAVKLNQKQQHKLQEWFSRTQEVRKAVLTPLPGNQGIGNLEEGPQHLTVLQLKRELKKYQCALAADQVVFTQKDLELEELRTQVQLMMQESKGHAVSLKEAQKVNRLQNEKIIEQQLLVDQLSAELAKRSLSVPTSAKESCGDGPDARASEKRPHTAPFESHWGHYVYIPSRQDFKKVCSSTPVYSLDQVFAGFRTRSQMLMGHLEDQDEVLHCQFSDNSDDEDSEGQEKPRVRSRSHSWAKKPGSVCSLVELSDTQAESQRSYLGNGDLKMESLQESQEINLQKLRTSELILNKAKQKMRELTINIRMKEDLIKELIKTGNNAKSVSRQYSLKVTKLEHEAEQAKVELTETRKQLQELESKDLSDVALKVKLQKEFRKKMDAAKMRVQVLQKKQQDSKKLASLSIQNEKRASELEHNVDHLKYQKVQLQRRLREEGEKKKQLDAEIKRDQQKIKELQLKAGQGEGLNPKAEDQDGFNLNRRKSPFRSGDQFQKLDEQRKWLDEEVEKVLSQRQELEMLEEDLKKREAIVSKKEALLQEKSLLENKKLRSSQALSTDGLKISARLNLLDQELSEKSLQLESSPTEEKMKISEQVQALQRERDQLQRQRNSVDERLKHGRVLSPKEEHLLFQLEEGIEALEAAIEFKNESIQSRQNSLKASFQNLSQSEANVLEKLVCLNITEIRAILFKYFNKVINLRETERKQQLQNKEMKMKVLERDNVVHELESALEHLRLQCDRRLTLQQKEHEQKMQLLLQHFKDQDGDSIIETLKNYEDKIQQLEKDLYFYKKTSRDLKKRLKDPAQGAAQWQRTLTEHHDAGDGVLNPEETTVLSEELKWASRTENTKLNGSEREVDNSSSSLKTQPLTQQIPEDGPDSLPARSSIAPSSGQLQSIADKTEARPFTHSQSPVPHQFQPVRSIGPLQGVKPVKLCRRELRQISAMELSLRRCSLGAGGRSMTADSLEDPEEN


How the values were obtained:
[1] = target: T1, HA-tagged full-length human CEP162 (human); assay: co-IP
[2] = target: T2, Endogenous KIF27-GFP (mouse Kif27^GFP knock-in allele) (mouse); assay: co-IP

Row | binding [1] | binding [2] | Binder
1 | binds |  | GFP-tagged KIF27-CC2 (aa 694-1401) (domain or fragment, UniProt Q86VH2 694-1401) EDLKIDCLQESQELNLQKLKNSERILTEAKQKMRELTINIKMKEDLIKELIKTGNDAKSVSKQYSLKVTKLEHDAEQAKVELIETQKQLQELENKDLSDVAMKVKLQKEFRKKMDAAKLRVQVLQKKQQDSKKLASLSIQNEKRANELEQSVDHMKYQKIQLQRKLREENEKRKQLDAVIKRDQQKIKEIQLKTGQEEGLKPKAEDLDACNLKRRKGSFGSIDHLQKLDEQKKWLDEEVEKVLNQRQELEELEADLKKREAIVSKKEALLQEKSHLENKKLRSSQALNTDSLKISTRLNLLEQELSEKNVQLQTSTAEEKTKISEQVEVLQKEKDQLQKRRHNVDEKLKNGRVLSPEEEHVLFQLEEGIEALEAAIEYRNESIQNRQKSLRASFHNLSRGEANVLEKLACLSPVEIRTILFRYFNKVVNLREAERKQQLYNEEMKMKVLERDNMVRELESALDHLKLQCDRRLTLQQKEHEQKMQLLLHHFKEQDGEGIMETFKTYEDKIQQLEKDLYFYKKTSRDHKKKLKELVGEAIRRQLAPSEYQEAGDGVLKPEGGGMLSEELKWASRPESMKLSGREREMDSSASSLRTQPNPQKLWEDIPELPPIHSSLAPPSGHMLGNENKTETDDNQFTKSHSRLSSQIQVVGNVGRLHGVTPVKLCRKELRQISALELSLRRSSLGVGIGSMAADSIEVSRKPRDLKT
2 |  | binds | Endogenous CEP162 (mouse testis) (protein, UniProt Q6ZQ06 1-1403) MAHYFKVDLDEEFERFMKELSDDSFENSNKTPRQPNEDNKEMKKKDPVPWWIAEDDFEDDGLLGTNVSYLKTKKTYQPVMDTEEESAEKVQFLKSSGTSILSVDSLEANELVVSEPHHSTLGLGLDTLEEQEEKEQFFARLEKGLTSSIDYSKLNQELDSDDSAQLKALHRYPRNTEPAEDGCENESEQEELPETYSDDFEDAEDADDPLITKDEETHPKENSESGKDSFPKQEEEKTGMLANVVLLDSFDSVEDVGLSSQEKATPKAKAPPEITDDGPAETGVPYGQSSGDTEALHQAYCHVAHSLGDTGEPRIEASTVQTVRSSIKDGLQENEESSKNVSTTESDLPTVEELMQPIRIDSYGIRAFDLQPISLKKATDSKEAESVGSLPLKTNTNTVSQDTRHAIQFPHKHDESVVLHRTADEGMGSSCPATEEHLDKMYLEILKKKTSVNPSLLPQDDKMNQTSRSQLGAGEEVPVIGKQVPCKKARSTPSLPKRKPQSGLYASARSSGYGKPSSPLQLFSALEKKTSKDNTKTKSVRSIPTSNQFRKREILSGTKLIKPAASNKPSPHREGSPATPKRPEDPSDDSFVQLQTEPLGSYGGNREKELLMLKRAQDAEEKWTGAQALMEQMKMTFCEKEKELENTVESLKRQQERELFRLNQENYILQAKLSSFEETSRKQRWLQFGETSDPLTGEKLKQIQKEIQEQETLLQGYQQENERLYNQVKDLQEQNKKNEERMFKENQNLFSELASLKEQMHKNHFLSQAVENTEPTKNQSFTDLLAELRAAQKEKNHLMEDIKRLKQDKQALEVDLEKVKRERDQAKDQIAYATGEKLYEIKILEETHKQEVSRLQKRLQWYAENQELLDRDAARLREANEETEKLRLEIEKLKTESGSPATQQRLRSKERALDAKRIQDLERQVKEMEGILKRRYPNSLPALILAASAAGDSVDRNTVEFMERRIKKLEADLEGKDEEAKKSLRTMEQQFQKMKIQYEQRLEEQEQLLAHRQKEAPQSQRNSSSRLKALETELGDIKEAHQITVRKLEAEIDVLKHQNADLEHKKNDKGDQGLQSIEFQVEQAQARAKLARLNEELAAKGREIQDLTKTVERLQKERRMMLSRQIPRSREETAAKRLKKDPNRGHGNAFPETLDGKLYHPHTFTDSHISEVLEENYRLRSELEGLILERSKLKMESEAAVCQLENSMKRVKDDAAAHIASLKASHEREIEKLLCQNAIENSSSKVAELNRKIATQEVLLKHFQGQVNELQGKQESLAVSQVREEILQKQITKLLEELKEAKENHTPEMKHFMGLERKIKQMEMRHRQREQELQQIIQQTRQVVETEQNKEVEKWKRLAQLKNRELDKFRTELDSILDVLRELHRQGVVVPMALAGEENTAEF
